Taken from: PubChem BioAssay AID1259308 (NCATS, 2017)

- Aim: 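Candidate targets for better recombinant protein yield in mammalian cells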 (primary screen)
- Cells: human HEK293 embryonic kidney cells stably expressing firefly luciferase (HEK-CMV-Luc2-Hygro)
- Knock-down reagent: single siRNA against human genes, 0.8 pmol siRNA per well
- Timing: 72 h
- Measurement: 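Luciferase light (ONE-Glo) measured on one replicate plate set and viability (CellTiter-Glo) on the other, scaled to a negative control siRNA, with robust z-scores and luciferase per cell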
- Scale: total luciferase, z-score: higher = more reporter protein produced
- Hit rule: 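An siRNA counts as active if its total luciferase robust z-score exceeds 3; genes with two or more such siRNAs out of three were retested with fresh siRNAs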
- Meaning of the calls: active = raised luciferase; inactive = no rise
Here is a random part of about 59,000 deposited reagents. Over the whole deposit, about 1,510 (2.6%) are marked active. 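Calls use total luciferase alone and ignore viability, so some active siRNAs may act by altering cell number.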 Reagents against one gene are numbered here. Further read-outs or replicates are left out here.

MAPKBP1 (mitogen-activated protein kinase binding protein 1) #1 scored total luciferase, z-score 0.0696; inactive.
After knock-down of MAPKBP1 (mitogen-activated protein kinase binding protein 1) #2, the record shows total luciferase, z-score 0.49; inactive.
Knock-down of MAPKBP1 (mitogen-activated protein kinase binding protein 1) #3 gave: total luciferase, z-score 0.174; inactive.
With knock-down of RPS16 (ribosomal protein S16) #1, the screen gave total luciferase, z-score -2.02; inactive.
After knock-down of RPS16 (ribosomal protein S16) #2, the record shows total luciferase, z-score -1.85; inactive.
Silencing of RPS16 (ribosomal protein S16) #3 came out at: total luciferase, z-score -1.98; inactive.
Silencing of ATOH7 (atonal bHLH transcription factor 7) #1 resulted in: total luciferase, z-score 0.0655; inactive.
For ATOH7 (atonal bHLH transcription factor 7) #2, the entry reads total luciferase, z-score 0.621; inactive.
Knock-down of ATOH7 (atonal bHLH transcription factor 7) #3 came out at: total luciferase, z-score -0.217; inactive.
NALCN (sodium leak channel, non-selective) #1 gave total luciferase, z-score -2.28; inactive.
NALCN (sodium leak channel, non-selective) #2 scored total luciferase, z-score -0.965; inactive.
Depletion of NALCN (sodium leak channel, non-selective) #3 resulted in: total luciferase, z-score -0.885; inactive.

A stretch taken from the entries so far:
NALCN (sodium leak channel, non-selective) #1: total luciferase, z-score = -2.28; Outcome = inactive
NALCN (sodium leak channel, non-selective) #2: total luciferase, z-score = -0.965; Outcome = inactive
